These are yes or no findings as the source states them, for the method shown. Binding seen in cells or lysates may run through a third protein. A yes stands for co-enrichment or nearness to the bait. Other partners may have been found. Sequences can lack the tags named with a protein.
Molecular target: T1, P2D SLC16A11^REF-V5 (human, UniProt Q8NCK7 1-447)
T1 construct: bait of the proteomics study; also called P2D WT SLC16A11; WT SLC16A11
T1 sequence: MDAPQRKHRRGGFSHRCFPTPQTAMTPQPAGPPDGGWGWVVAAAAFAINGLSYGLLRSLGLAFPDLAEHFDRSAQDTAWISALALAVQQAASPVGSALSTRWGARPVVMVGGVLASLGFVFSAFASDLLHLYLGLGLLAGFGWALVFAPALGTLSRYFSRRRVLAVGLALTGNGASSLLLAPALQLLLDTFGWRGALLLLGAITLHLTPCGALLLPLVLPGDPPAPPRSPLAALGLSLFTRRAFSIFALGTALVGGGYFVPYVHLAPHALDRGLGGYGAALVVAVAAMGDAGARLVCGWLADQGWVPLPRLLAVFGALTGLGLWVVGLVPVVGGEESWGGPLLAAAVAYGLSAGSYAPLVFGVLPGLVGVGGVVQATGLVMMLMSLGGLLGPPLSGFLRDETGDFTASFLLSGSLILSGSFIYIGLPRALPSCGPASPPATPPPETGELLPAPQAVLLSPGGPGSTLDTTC
Assay: IP of P2D WT SLC16A11 vs control IP, quantitative mass spectrometry (FIG. 5B top right)

- binding: binds
B1: Basigin (other, human, UniProt P35613-2 22-269, looked up)
chain: AAGTVFTTVEDLGSKILLTCSLNDSATEVTGHRWLKGGVVLKEDALPGQKTEFKVDSDDQWGEYSCVFLPEPMGTANIQLHGPPRVKAVKSSEHINEGETAMLVCKSESVPPVTDWAWYKITDSEDKALMNGSESRFFVSSSQGRSELHIENLNMEADPGQYRCNGTSSKGSDQAIITLRVRSHLAALWPFLGIVAEVLVLVTIIFIYEKRRKPEDVLDDDDAGSAPLKSSGQHQNDKGKNVRQRNSS
modifications: glycosylated (runs as multiple bands)
notes: Endogenous protein co-precipitated from HEK293T lysate; also called BSG; endogenous BSG
